# PubChem BioAssay AID1508597 – Cure First, 2020
# Aim: 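Survival screen with siRNA in ovarian cancer cells derived from patients, with or without rucaparib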 (primary screen)
# Cells: human ovarian carcinoma lines grown from tumours: OCI-P5x (papillary serous) and OCI-C5x (clear cell)
# Reagents: siRNA pool against human genes, 1.25 pmol siRNA per well
# Time to read-out: 72 h or 96 h, depending on the cell culture
# Conditions: rucaparib 20 µM (about IC30) or vehicle, present until read-out
# Rucaparib or vehicle: Rucaparib
# Cell line: OCI-P5x (serous)
# Read-out: 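Luminescent ATP-based viability assay read 72 or 96 h after transfection, depending on culture, given as normalised percent viability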
# Direction: viability, normalised: higher = more viable cells remaining
# Rule for the call: 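Active when normalised viability falls below 80 percent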
# Calls: active = viability under 80%; inactive = viability 80% or more
# Shown is an unselected part of the about 2,100 reagents, in one setting of the screen. 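Calls flag viability under 80% in either arm, not effects specific to rucaparib; the reference for percent is not stated.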 A reagent listed more than once was tested more than once; the source does not tell the runs apart. The record does not give: the 100% reference.
target,technical replicate,"viability, normalised (%)",Call
MAP3K3,1,88.1,inactive
MAP3K3,2,88.1,inactive
MAP3K3,3,87.9,inactive
RBBP5,1,47.8,active
RBBP5,2,62.6,active
RBBP5,3,60,active
ZGPAT,1,66.7,active
ZGPAT,2,71.2,active
ZGPAT,3,46.9,active
TAF7,1,48,active
TAF7,2,40.1,active
TAF7,3,53.9,active
PCM1,1,43.6,active
PCM1,2,38.8,active
PCM1,3,39.3,active
ERN2,1,92.3,inactive
ERN2,2,80.1,inactive
ERN2,3,74.6,active
RBBP7,1,39.8,active
RBBP7,2,46.9,active
RBBP7,3,46.4,active
PRKAA1,1,95.7,inactive
PRKAA1,2,85,inactive
PRKAA1,3,98.6,inactive
MGMT,1,52.6,active
MGMT,1,84.2,inactive
MGMT,2,88.9,inactive
MGMT,2,63.2,active
MGMT,3,72.4,active
MGMT,3,73.3,active
MAP1B,1,50.8,active
MAP1B,2,49.3,active
MAP1B,3,17.8,active
TGFBR3,1,73.1,active
TGFBR3,2,86.2,inactive
TGFBR3,3,68.4,active
POU1F1,1,19.3,active
POU1F1,2,33.5,active
POU1F1,3,38.7,active
TRIM68,1,51.1,active
TRIM68,2,61.2,active
TRIM68,3,51.8,active
PHF14,1,58.3,active
PHF14,2,50.8,active
PHF14,3,48.2,active
DAP3,1,49.6,active
DAP3,2,59.1,active
DAP3,3,65.1,active
NUAK1,1,88,inactive
NUAK1,2,78.5,active
NUAK1,3,64.3,active
STRADB,1,101,inactive
STRADB,2,87.6,inactive
STRADB,3,87,inactive
PDGFRB,1,88.1,inactive
PDGFRB,2,94.3,inactive
PDGFRB,3,80.3,inactive

In a second layout: entries from further up.
MGMT, technical replicate 1 — viability, normalised (%) = 52.6; Call = active
MGMT, technical replicate 1 — viability, normalised (%) = 84.2; Call = inactive
